This is an account of results in US20240181006A1, “POLYPEPTIDES BINDING ADAMTS5, MMP13 AND AGGRECAN” (Merck Patent GmbH, priority 2017, published 2024).

In the experiment the target is guinea pig ADAMTS5 (guinea pig). Description: SPR off-rate analysis.

No constants are given. Whether binding was seen depends on the method and setting. A result given as binding can be weak or reduced; the word gives no strength.

B1: anti-ADAMTS5 ISVD 02F03 (VHH)
VHH: EVQLVESGGGVVQPGGSLRLSCAASGRTVSSYAMGWFRQAPGKEREFVAGISRSAERTYYVDSLKGRFTISRDNSKNTVYLQMNSLRPEDTALYYCAADLDPNRIFSREEYAYWGQGTLVTVSS
Consider B1, for which the binding entry is “binds”.
